According to PMC12581659:
These are yes or no findings as the source states them, for the method shown. In cells and extracts the contact can be indirect. Some entries that bind do so weakly or less than the wild type.

Target: T1, receptor-interacting serine/threonine-protein kinase 1 (RIPK1), endogenous in MEFs (mouse (endogenous in MEFs)), Q60855
T1 chain: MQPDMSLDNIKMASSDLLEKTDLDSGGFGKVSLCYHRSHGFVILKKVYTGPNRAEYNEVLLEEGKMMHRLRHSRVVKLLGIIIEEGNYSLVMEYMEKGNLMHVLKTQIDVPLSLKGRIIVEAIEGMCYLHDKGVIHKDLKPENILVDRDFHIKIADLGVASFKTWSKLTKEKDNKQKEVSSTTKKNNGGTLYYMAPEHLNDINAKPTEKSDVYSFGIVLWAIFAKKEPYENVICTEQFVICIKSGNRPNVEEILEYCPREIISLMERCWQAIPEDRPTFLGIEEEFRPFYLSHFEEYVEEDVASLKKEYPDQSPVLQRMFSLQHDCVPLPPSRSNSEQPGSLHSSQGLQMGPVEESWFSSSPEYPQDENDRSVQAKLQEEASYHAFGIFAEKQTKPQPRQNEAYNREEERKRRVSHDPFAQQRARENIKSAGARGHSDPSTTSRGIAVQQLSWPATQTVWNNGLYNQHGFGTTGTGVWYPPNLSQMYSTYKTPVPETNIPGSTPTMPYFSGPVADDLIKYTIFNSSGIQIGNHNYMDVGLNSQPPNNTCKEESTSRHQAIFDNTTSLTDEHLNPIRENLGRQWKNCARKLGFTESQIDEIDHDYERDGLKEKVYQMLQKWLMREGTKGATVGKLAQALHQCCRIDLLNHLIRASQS
Test: co-IP; SPOP+/+ and SPOP-/- MEFs pretreated with Nec-1s or DMSO for 1 hour, then DMSO, TSZ or TSZ+Nec-1s for 4 hours; necrosome immunoprecipitated using RIPK1 antibody, immunoblot
Details: remark: other sources report otherwise

B1: receptor-interacting serine/threonine-protein kinase 3 (RIPK3), endogenous in MEFs, Q9QZL0 1-486 (protein)
chain: MSSVKLWPTGASAVPLVSREELKKLEFVGKGGFGVVFRAHHRTWNHDVAVKIVNSKKISWEVKAMVNLRNENVLLLLGVTEDLQWDFVSGQALVTRFMENGSLAGLLQPECPRPWPLLCRLLQEVVLGMCYLHSLNPPLLHRDLKPSNILLDPELHAKLADFGLSTFQGGSQSGSGSGSGSRDSGGTLAYLDPELLFDVNLKASKASDVYSFGILVWAVLAGREAELVDKTSLIRETVCDRQSRPPLTELPPGSPETPGLEKLKELMIHCWGSQSENRPSFQDCEPKTNEVYNLVKDKVDAAVSEVKHYLSQHRSSGRNLSAREPSQRGTEMDCPRETMVSKMLDRLHLEEPSGPVPGKCPERQAQDTSVGPATPARTSSDPVAGTPQIPHTLPFRGTTPGPVFTETPGPHPQRNQGDGRHGTPWYPWTPPNPMTGPPALVFNNCSEVQIGNYNSLVAPPRTTASSSAKYDQAQFGRGRGWQPFHK
- binding: binds
